# In the supplement of paper PMC8728848:
# The other results are listed elsewhere or left out.
# B1: GST Gap3 (Streptococcus parasanguinis) (protein)
# chain: MTKQLISEIYWNEIRKGENYLYGSQIKFQEDLVNFYNPQLASGKPIVTFKSRTNYQGDRHSPDLPILIQGNRYLLEYQIDAVPANSFFLQLDFFNRQAEQIESIVLRNSGESFIFPKDTFTYTLTLMSAGCQSVTYQKFMIYDINDEEKKNHIVENRYLRELLPKDLDLVKNLIEYI
# Columns and labels:
# Experiment in all cases: glycan array binding signal (z-score within array); higher = stronger binding
# Settings in all cases: glycan notation: IUPAC condensed, linker removed
# [1] = biological target: Fuc(a1-2)Gal(b1-4)GlcNAc(b1-6)GalNAc
# Procedure, shortened: (§1)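 Glycan array data were curated from 3228 arrays in the Consortium for Functional Glycomics database and kept only where the protein sequence was available. Glycan names were converted to IUPAC-condensed notation, and columns mapping to the same glycan were averaged. The binding signal is a within-array Z-score, averaged across arrays of the same protein sequence at different concentrations or buffers and across linkers. Negative Z-scores can be read as non-binding.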
# [2] = biological target: Fuc(a1-2)Gal(b1-4)GlcNAc6S
# Procedure, shortened: as §1
# [3] = biological target: Fuc(a1-2)Gal(b1-4)[Fuc(a1-3)]GlcNAc
# Procedure, shortened: as §1
# [4] = biological target: Fuc(a1-2)Gal(b1-4)[Fuc(a1-3)]GlcNAc(b1-2)Man(a1-3)[Fuc(a1-2)Gal(b1-4)[Fuc(a1-3)]GlcNAc(b1-2)Man(a1-6)]Man(b1-4)GlcNAc(b1-4)GlcNAc
# Procedure, shortened: as §1
# [5] = biological target: Fuc(a1-2)Gal(b1-4)[Fuc(a1-3)]GlcNAc(b1-2)Man(a1-3)[Fuc(a1-2)Gal(b1-4)[Fuc(a1-3)]GlcNAc(b1-2)Man(a1-6)]Man(b1-4)GlcNAc(b1-4)[Fuc(a1-6)]GlcNAc
# Procedure, shortened: as §1
# [6] = biological target: Fuc(a1-2)Gal(b1-4)[Fuc(a1-3)]GlcNAc(b1-2)[Fuc(a1-2)Gal(b1-4)[Fuc(a1-3)]GlcNAc(b1-4)]Man(a1-3)[Fuc(a1-2)Gal(b1-4)[Fuc(a1-3)]GlcNAc(b1-2)Man(a1-6)]Man(b1-4)GlcNAc(b1-4)GlcNAc
# Procedure, shortened: as §1
# [7] = biological target: Fuc(a1-2)Gal(b1-4)[Fuc(a1-3)]GlcNAc(b1-3)Gal(b1-4)[Fuc(a1-3)]GlcNAc
# Procedure, shortened: as §1
# [8] = biological target: Fuc(a1-2)Gal(b1-4)[Fuc(a1-3)]GlcNAc(b1-3)Gal(b1-4)[Fuc(a1-3)]GlcNAc(b1-3)Gal(b1-4)[Fuc(a1-3)]GlcNAc
# Procedure, shortened: as §1
# [9] = biological target: Fuc(a1-2)Gal(b1-4)[Fuc(a1-3)]GlcNAc(b1-3)GalNAc
# Procedure, shortened: as §1
# [10] = biological target: Fuc(a1-2)Gal(b1-4)[Fuc(a1-3)]GlcNAc(b1-3)[Neu5Ac(a2-6)Gal(b1-4)GlcNAc(b1-6)]Gal(b1-4)Glc
# Procedure, shortened: as §1
# [11] = biological target: Fuc(a1-2)Gal3S(b1-4)GlcNAc
# Procedure, shortened: as §1
# [12] = biological target: Fuc(a1-2)Gal6S(b1-3)GlcNAc
# Procedure, shortened: as §1
# [13] = biological target: Fuc(a1-2)Gal6S(b1-3)GlcNAc6S
# Procedure, shortened: as §1
# Fuc(a1-2)Gal6S(b1-4)Glc = biological target: Fuc(a1-2)Gal6S(b1-4)Glc
# Procedure, shortened: as §1
# [14] = biological target: Fuc(a1-2)Gal6S(b1-4)Glc6S
# Procedure, shortened: as §1
# [15] = biological target: Fuc(a1-2)Gal6S(b1-4)GlcNAc
# Procedure, shortened: as §1
# Fuc(a1-2)[Gal(a1-3)]Gal = biological target: Fuc(a1-2)[Gal(a1-3)]Gal
# Procedure, shortened: as §1
# [16] = biological target: Fuc(a1-2)[Gal(a1-3)]Gal(b1-3)GalNAc
# Procedure, shortened: as §1
# [17] = biological target: Fuc(a1-2)[Gal(a1-3)]Gal(b1-3)GalNAc(b1-3)Gal(a1-4)Gal(b1-4)Glc
# Procedure, shortened: as §1
# [18] = biological target: Fuc(a1-2)[Gal(a1-3)]Gal(b1-3)GlcNAc
# Procedure, shortened: as §1
# [19] = biological target: Fuc(a1-2)[Gal(a1-3)]Gal(b1-3)GlcNAc(b1-2)Man(a1-3)[Fuc(a1-2)[Gal(a1-3)]Gal(b1-3)GlcNAc(b1-2)Man(a1-6)]Man(b1-4)GlcNAc(b1-4)GlcNAc
# Procedure, shortened: as §1
# [20] = biological target: Fuc(a1-2)[Gal(a1-3)]Gal(b1-3)GlcNAc(b1-2)Man(a1-3)[Fuc(a1-2)[Gal(a1-3)]Gal(b1-3)GlcNAc(b1-2)Man(a1-6)]Man(b1-4)GlcNAc(b1-4)[Fuc(a1-6)]GlcNAc
# Procedure, shortened: as §1
# [21] = biological target: Fuc(a1-2)[Gal(a1-3)]Gal(b1-3)GlcNAc(b1-3)GalNAc
# Procedure, shortened: as §1
# [22] = biological target: Fuc(a1-2)[Gal(a1-3)]Gal(b1-3)GlcNAc(b1-6)GalNAc
# Procedure, shortened: as §1
# [23] = biological target: Fuc(a1-2)[Gal(a1-3)]Gal(b1-4)Glc
# Procedure, shortened: as §1
# [24] = biological target: Fuc(a1-2)[Gal(a1-3)]Gal(b1-4)GlcNAc
# Procedure, shortened: as §1
# [25] = biological target: Fuc(a1-2)[Gal(a1-3)]Gal(b1-4)GlcNAc(b1-2)Man
# Procedure, shortened: as §1
# [26] = biological target: Fuc(a1-2)[Gal(a1-3)]Gal(b1-4)GlcNAc(b1-2)Man(a1-3)[Fuc(a1-2)[Gal(a1-3)]Gal(b1-4)GlcNAc(b1-2)Man(a1-6)]Man(b1-4)GlcNAc(b1-4)GlcNAc
# Procedure, shortened: as §1
# [27] = biological target: Fuc(a1-2)[Gal(a1-3)]Gal(b1-4)GlcNAc(b1-2)Man(a1-3)[Fuc(a1-2)[Gal(a1-3)]Gal(b1-4)GlcNAc(b1-2)Man(a1-6)]Man(b1-4)GlcNAc(b1-4)[Fuc(a1-6)]GlcNAc
# Procedure, shortened: as §1
# [28] = biological target: Fuc(a1-2)[Gal(a1-3)]Gal(b1-4)GlcNAc(b1-3)GalNAc
# Procedure, shortened: as §1
# [29] = biological target: Fuc(a1-2)[Gal(a1-3)]Gal(b1-4)GlcNAc(b1-3)[Fuc(a1-2)[Gal(a1-3)]Gal(b1-4)GlcNAc(b1-6)]GalNAc
# Procedure, shortened: as §1
# [30] = biological target: Fuc(a1-2)[Gal(a1-3)]Gal(b1-4)GlcNAc(b1-6)GalNAc
# Procedure, shortened: as §1
# [31] = biological target: Fuc(a1-2)[Gal(a1-3)]Gal(b1-4)[Fuc(a1-3)]Glc
# Procedure, shortened: as §1
# [32] = biological target: Fuc(a1-2)[Gal(a1-3)]Gal(b1-4)[Fuc(a1-3)]GlcNAc
# Procedure, shortened: as §1
# [33] = biological target: Fuc(a1-2)[Gal(a1-3)]Gal(b1-4)[Fuc(a1-3)]GlcNAc(b1-3)GalNAc
# Procedure, shortened: as §1
# [34] = biological target: Fuc(a1-2)[Gal(a1-4)]Gal(b1-4)GlcNAc
# Procedure, shortened: as §1
# [35] = biological target: Fuc(a1-2)[GalNAc(a1-3)]Gal
# Procedure, shortened: as §1
# [36] = biological target: Fuc(a1-2)[GalNAc(a1-3)]Gal(b1-3)GalNAc(a1-3)[Fuc(a1-2)]Gal(b1-4)GlcNAc
# Procedure, shortened: as §1
binder,measurement,setting,value
B1,glycan array binding signal (z-score),[1],-0.108
same,glycan array binding signal (z-score),[2],-0.096
same,glycan array binding signal (z-score),[3],0.037
same,glycan array binding signal (z-score),[4],0.952
same,glycan array binding signal (z-score),[5],0.367
same,glycan array binding signal (z-score),[6],0.945
same,glycan array binding signal (z-score),[7],0.061
same,glycan array binding signal (z-score),[8],1.25
same,glycan array binding signal (z-score),[9],0.492
same,glycan array binding signal (z-score),[10],-0.463
same,glycan array binding signal (z-score),[11],-0.348
same,glycan array binding signal (z-score),[12],-0.051
same,glycan array binding signal (z-score),[13],2.06
same,glycan array binding signal (z-score),Fuc(a1-2)Gal6S(b1-4)Glc,-0.095
same,glycan array binding signal (z-score),[14],-0.051
same,glycan array binding signal (z-score),[15],-0.073
same,glycan array binding signal (z-score),Fuc(a1-2)[Gal(a1-3)]Gal,-0.37
same,glycan array binding signal (z-score),[16],-0.35
same,glycan array binding signal (z-score),[17],-0.553
same,glycan array binding signal (z-score),[18],-0.451
same,glycan array binding signal (z-score),[19],0.145
same,glycan array binding signal (z-score),[20],-0.264
same,glycan array binding signal (z-score),[21],0.007
same,glycan array binding signal (z-score),[22],-0.112
same,glycan array binding signal (z-score),[23],-0.045
same,glycan array binding signal (z-score),[24],-0.387
same,glycan array binding signal (z-score),[25],-0.61
same,glycan array binding signal (z-score),[26],0.383
same,glycan array binding signal (z-score),[27],0.053
same,glycan array binding signal (z-score),[28],-0.168
same,glycan array binding signal (z-score),[29],0.249
same,glycan array binding signal (z-score),[30],-0.106
same,glycan array binding signal (z-score),[31],-0.358
same,glycan array binding signal (z-score),[32],0.502
same,glycan array binding signal (z-score),[33],0.147
same,glycan array binding signal (z-score),[34],-0.28
same,glycan array binding signal (z-score),[35],-0.119
same,glycan array binding signal (z-score),[36],0.334

# 2 records drawn at random from those above, as already listed:
binder,measurement,setting,value
B1,glycan array binding signal (z-score),[36],0.334
same,glycan array binding signal (z-score),Fuc(a1-2)Gal6S(b1-4)Glc,-0.095
